Measurements: the supplement of paper PMC8728848
The other results are listed elsewhere or left out.

Assays:
Assay in all cases: glycan array binding signal (z-score within array); higher = stronger binding
Conditions in all cases: glycan notation: IUPAC condensed, linker removed
Fuc(a1-2)Gal = molecular target: Fuc(a1-2)Gal
Procedure, shortened: (§1)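 From the Consortium for Functional Glycomics database, 3228 arrays were curated, keeping only those whose protein sequence was available. Binding is given as a within-array Z-score averaged across arrays sharing a protein sequence and across linkers. Negative Z-scores can be read as non-binding.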

Fuc(a1-2)Gal(b1-3)GalNAc = molecular target: Fuc(a1-2)Gal(b1-3)GalNAc
Procedure, shortened: as §1

[1] = molecular target: Fuc(a1-2)Gal(b1-3)GalNAc(a1-3)[Fuc(a1-2)]Gal(b1-4)Glc
Procedure, shortened: as §1

[2] = molecular target: Fuc(a1-2)Gal(b1-3)GalNAc(a1-3)[Fuc(a1-2)]Gal(b1-4)GlcNAc
Procedure, shortened: as §1

[3] = molecular target: Fuc(a1-2)Gal(b1-3)GalNAc(b1-3)Gal
Procedure, shortened: as §1

[4] = molecular target: Fuc(a1-2)Gal(b1-3)GalNAc(b1-3)Gal(a1-4)Gal(b1-4)Glc
Procedure, shortened: as §1

[5] = molecular target: Fuc(a1-2)Gal(b1-3)GalNAc(b1-4)[Neu5Ac(a2-3)]Gal(b1-4)Glc
Procedure, shortened: as §1

Fuc(a1-2)Gal(b1-3)GlcNAc = molecular target: Fuc(a1-2)Gal(b1-3)GlcNAc
Procedure, shortened: as §1

[6] = molecular target: Fuc(a1-2)Gal(b1-3)GlcNAc(b1-2)Man(a1-3)[Fuc(a1-2)Gal(b1-3)GlcNAc(b1-2)Man(a1-6)]Man(b1-4)GlcNAc(b1-4)GlcNAc
Procedure, shortened: as §1

[7] = molecular target: Fuc(a1-2)Gal(b1-3)GlcNAc(b1-2)Man(a1-3)[Fuc(a1-2)Gal(b1-3)GlcNAc(b1-2)Man(a1-6)]Man(b1-4)GlcNAc(b1-4)[Fuc(a1-6)]GlcNAc
Procedure, shortened: as §1

[8] = molecular target: Fuc(a1-2)Gal(b1-3)GlcNAc(b1-3)Gal(b1-4)Glc
Procedure, shortened: as §1

[9] = molecular target: Fuc(a1-2)Gal(b1-3)GlcNAc(b1-3)GalNAc
Procedure, shortened: as §1

[10] = molecular target: Fuc(a1-2)Gal(b1-3)GlcNAc(b1-3)[Fuc(a1-2)Gal(b1-3)GlcNAc(b1-6)]GalNAc
Procedure, shortened: as §1

[11] = molecular target: Fuc(a1-2)Gal(b1-3)GlcNAc(b1-3)[Gal(b1-4)GlcNAc(b1-6)]Gal(b1-4)Glc
Procedure, shortened: as §1

[12] = molecular target: Fuc(a1-2)Gal(b1-3)GlcNAc(b1-3)[Neu5Ac(a2-6)Gal(b1-4)GlcNAc(b1-6)]Gal(b1-4)Glc
Procedure, shortened: as §1

[13] = molecular target: Fuc(a1-2)Gal(b1-3)GlcNAc6S
Procedure, shortened: as §1

[14] = molecular target: Fuc(a1-2)Gal(b1-3)[Fuc(a1-4)]GlcNAc
Procedure, shortened: as §1

[15] = molecular target: Fuc(a1-2)Gal(b1-3)[Fuc(a1-4)]GlcNAc(b1-2)Man(a1-3)[Fuc(a1-2)Gal(b1-3)[Fuc(a1-4)]GlcNAc(b1-2)Man(a1-3)]Man(b1-4)GlcNAc(b1-4)GlcNAc
Procedure, shortened: as §1

[16] = molecular target: Fuc(a1-2)Gal(b1-3)[Fuc(a1-4)]GlcNAc(b1-2)Man(a1-3)[Fuc(a1-2)Gal(b1-3)[Fuc(a1-4)]GlcNAc(b1-2)Man(a1-6)]Man(b1-4)GlcNAc(b1-4)[Fuc(a1-6)]GlcNAc(b1-4)[Fuc(a1-6)]GlcNAc
Procedure, shortened: as §1

[17] = molecular target: Fuc(a1-2)Gal(b1-3)[Fuc(a1-4)]GlcNAc(b1-3)[Fuc(a1-3)[Gal(b1-4)]GlcNAc(b1-6)]Gal(b1-4)Glc
Procedure, shortened: as §1

[18] = molecular target: Fuc(a1-2)Gal(b1-3)[Fuc(a1-4)]GlcNAc(b1-3)[Gal(b1-4)GlcNAc(b1-6)]Gal(b1-4)Glc
Procedure, shortened: as §1

[19] = molecular target: Fuc(a1-2)Gal(b1-4)Fuc(a1-3)]GlcNAc(b1-2)Man(a1-3)[Fuc(a1-2)Gal(b1-4)[Fuc(a1-3)]GlcNAc(b1-2)Man(a1-6)]Man(b1-4)GlcNAc(b1-4)GlcNAc
Procedure, shortened: as §1

Fuc(a1-2)Gal(b1-4)Glc = molecular target: Fuc(a1-2)Gal(b1-4)Glc
Procedure, shortened: as §1

Fuc(a1-2)Gal(b1-4)Glc6S = molecular target: Fuc(a1-2)Gal(b1-4)Glc6S
Procedure, shortened: as §1

Fuc(a1-2)Gal(b1-4)GlcNAc = molecular target: Fuc(a1-2)Gal(b1-4)GlcNAc
Procedure, shortened: as §1

[20] = molecular target: Fuc(a1-2)Gal(b1-4)GlcNAc(b1-2)Man
Procedure, shortened: as §1

[21] = molecular target: Fuc(a1-2)Gal(b1-4)GlcNAc(b1-2)Man(a1-3)[Fuc(a1-2)Gal(b1-4)GlcNAc(b1-2)Man(a1-6)]Man(b1-4)GlcNAc(b1-4)GlcNAc
Procedure, shortened: as §1

[22] = molecular target: Fuc(a1-2)Gal(b1-4)GlcNAc(b1-2)Man(a1-3)[Fuc(a1-2)Gal(b1-4)GlcNAc(b1-2)Man(a1-6)]Man(b1-4)GlcNAc(b1-4)[Fuc(a1-6)]GlcNAc
Procedure, shortened: as §1

[23] = molecular target: Fuc(a1-2)Gal(b1-4)GlcNAc(b1-2)[Fuc(a1-2)Gal(b1-4)GlcNAc(b1-4)]Man(a1-3)[Fuc(a1-2)Gal(b1-4)GlcNAc(b1-2)Man(a1-6)]Man(b1-4)GlcNAc(b1-4)GlcNAc
Procedure, shortened: as §1

[24] = molecular target: Fuc(a1-2)Gal(b1-4)GlcNAc(b1-3)Gal(b1-4)GlcNAc
Procedure, shortened: as §1

[25] = molecular target: Fuc(a1-2)Gal(b1-4)GlcNAc(b1-3)Gal(b1-4)GlcNAc(b1-2)Man(a1-3)[Fuc(a1-2)Gal(b1-4)GlcNAc(b1-3)Gal(b1-4)GlcNAc(b1-2)Man(a1-6)]Man(b1-4)GlcNAc(b1-4)GlcNAc
Procedure, shortened: as §1

[26] = molecular target: Fuc(a1-2)Gal(b1-4)GlcNAc(b1-3)Gal(b1-4)GlcNAc(b1-3)Gal(b1-4)GlcNAc
Procedure, shortened: as §1

[27] = molecular target: Fuc(a1-2)Gal(b1-4)GlcNAc(b1-3)GalNAc
Procedure, shortened: as §1

[28] = molecular target: Fuc(a1-2)Gal(b1-4)GlcNAc(b1-3)[Fuc(a1-2)Gal(b1-4)GlcNAc(b1-6)]GalNAc
Procedure, shortened: as §1

[29] = molecular target: Fuc(a1-2)Gal(b1-4)GlcNAc(b1-3)[Fuc(a1-3)[Gal(b1-4)]GlcNAc(b1-6)]Gal(b1-4)Glc
Procedure, shortened: as §1

[30] = molecular target: Fuc(a1-2)Gal(b1-4)GlcNAc(b1-6)GalNAc
Procedure, shortened: as §1

[31] = molecular target: Fuc(a1-2)Gal(b1-4)GlcNAc6S
Procedure, shortened: as §1

B1: AT3G44510(29) (Arabidopsis thaliana), F4J341 (protein)
chain: MEEHLQGRIKLHDGRYLAYKERGVPKDDAKFTIVLVHGFGSSKDMNFNVSQELVNEIGIYFVLYDRAGYGESDPNPKRSLKSEAYDVQELADGLEIGSRFYLIGISMGSYTVWSCLKHIPQRLAGVAMVAPVVNFRWPSIPKSLMPKDYRREVAKWSVWIANYFPGLLQWLVTQNMFSTTSMLEKNPVYFNDQDIEVLKHIKGFPMLTKEKLRERGVFGTLRSDFLVAFGDWDFDPADLPDPSLSGPEKGSSSVHIWQGYEDKVMPFQLQRCLCRKLPWIRYHEVPKGGHLIVHYDGICDAILKSLLLGEDLPMYKPKAVITEPA
Fuc(a1-2)Gal
  glycan array binding signal (z-score): 0.376
Fuc(a1-2)Gal(b1-3)GalNAc
  glycan array binding signal (z-score): -0.306
[1]
  glycan array binding signal (z-score): 1.73
[2]
  glycan array binding signal (z-score): -0.505
[3]
  glycan array binding signal (z-score): -0.126
[4]
  glycan array binding signal (z-score): 1.31
[5]
  glycan array binding signal (z-score): -0.119
Fuc(a1-2)Gal(b1-3)GlcNAc
  glycan array binding signal (z-score): 0.123
[6]
  glycan array binding signal (z-score): 0.552
[7]
  glycan array binding signal (z-score): -0.086
[8]
  glycan array binding signal (z-score): 0.022
[9]
  glycan array binding signal (z-score): -0.374
[10]
  glycan array binding signal (z-score): -0.277
[11]
  glycan array binding signal (z-score): 0.542
[12]
  glycan array binding signal (z-score): -0.373
[13]
  glycan array binding signal (z-score): -0.678
[14]
  glycan array binding signal (z-score): 0.062
[15]
  glycan array binding signal (z-score): 0.773
[16]
  glycan array binding signal (z-score): -0.074
[17]
  glycan array binding signal (z-score): -0.313
[18]
  glycan array binding signal (z-score): 0.203
[19]
  glycan array binding signal (z-score): 0.139
Fuc(a1-2)Gal(b1-4)Glc
  glycan array binding signal (z-score): -0.012
Fuc(a1-2)Gal(b1-4)Glc6S
  glycan array binding signal (z-score): -1.09
Fuc(a1-2)Gal(b1-4)GlcNAc
  glycan array binding signal (z-score): 0.25
[20]
  glycan array binding signal (z-score): -0.589
[21]
  glycan array binding signal (z-score): 0.977
[22]
  glycan array binding signal (z-score): -0.771
[23]
  glycan array binding signal (z-score): -0.856
[24]
  glycan array binding signal (z-score): 0.345
[25]
  glycan array binding signal (z-score): -0.325
[26]
  glycan array binding signal (z-score): -0.12
[27]
  glycan array binding signal (z-score): -0.838
[28]
  glycan array binding signal (z-score): 0.16
[29]
  glycan array binding signal (z-score): -0.485
[30]
  glycan array binding signal (z-score): -0.731
[31]
  glycan array binding signal (z-score): -0.584
